Structures can show the parent of a compound that is named as a salt. The list shows a part of the results. Hit calls seldom repeat between salt and free forms of one compound.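 In K562 cells expressing nanoluciferase-fused kinases, luminescence was recorded at 4 h intervals between 2 and 18 h, normalized as percent of control with DMSO at 100% and a positive control at 0%. A significant (2 sigma) signal drop marks a time point as decreased. The authors' rule for a hit is not shown and takes in more than the number of time points.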
Assays:
Experiment in all cases: number of time points (of 5) at which kinase-Nluc abundance scored as decreased, DMSO-normalised (count); higher = more persistent destabilization
Conditions in all cases: K562; 2-18 h
[1] = biological target: CAMK2A (UniProt Q9UQM7)
[2] = biological target: CAMK2G (UniProt Q13555)
[3] = biological target: CDK10 (UniProt Q15131)
[4] = biological target: CDK2 (UniProt P24941)
[5] = biological target: CDK3 (UniProt Q00526)
[6] = biological target: CDK5 (UniProt Q00535)
[7] = biological target: CDK6 (UniProt Q00534)
[8] = biological target: CHEK2 (UniProt O96017)
[9] = biological target: CSF1R (UniProt P07333)
[10] = biological target: CSK (UniProt P41240)
[11] = biological target: CSNK1A1 (UniProt P48729)
[12] = biological target: CSNK1D (UniProt P48730)
[13] = biological target: DDR1 (UniProt Q08345)
[14] = biological target: DYRK1B (UniProt Q9Y463)
[15] = biological target: DYRK2 (UniProt Q92630)
[16] = biological target: EGFR (UniProt P00533)
[17] = biological target: EGFR_G719S (UniProt P00533)
[18] = biological target: EGFR_G719S_T790M (UniProt P00533)
[19] = biological target: EGFR_L718V (UniProt P00533)
[20] = biological target: EGFR_L858R (UniProt P00533)

Sequences of proteins named here, by UniProt entry; tags and fusion partners are left off. A change or cut given only in a name is not applied to a line headed by its entry.
UniProt Q9UQM7, whole entry: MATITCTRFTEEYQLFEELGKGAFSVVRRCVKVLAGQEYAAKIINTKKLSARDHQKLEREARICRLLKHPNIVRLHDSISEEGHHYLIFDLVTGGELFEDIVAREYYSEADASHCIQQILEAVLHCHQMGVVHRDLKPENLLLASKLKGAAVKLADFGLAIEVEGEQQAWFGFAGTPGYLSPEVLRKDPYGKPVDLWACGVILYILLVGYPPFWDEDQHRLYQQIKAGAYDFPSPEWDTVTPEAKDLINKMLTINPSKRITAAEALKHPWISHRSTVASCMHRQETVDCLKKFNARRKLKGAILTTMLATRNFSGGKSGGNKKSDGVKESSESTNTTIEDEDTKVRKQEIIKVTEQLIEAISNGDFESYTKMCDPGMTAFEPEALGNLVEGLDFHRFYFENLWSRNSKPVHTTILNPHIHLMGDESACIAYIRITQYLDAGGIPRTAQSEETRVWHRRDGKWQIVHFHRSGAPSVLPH
UniProt Q13555: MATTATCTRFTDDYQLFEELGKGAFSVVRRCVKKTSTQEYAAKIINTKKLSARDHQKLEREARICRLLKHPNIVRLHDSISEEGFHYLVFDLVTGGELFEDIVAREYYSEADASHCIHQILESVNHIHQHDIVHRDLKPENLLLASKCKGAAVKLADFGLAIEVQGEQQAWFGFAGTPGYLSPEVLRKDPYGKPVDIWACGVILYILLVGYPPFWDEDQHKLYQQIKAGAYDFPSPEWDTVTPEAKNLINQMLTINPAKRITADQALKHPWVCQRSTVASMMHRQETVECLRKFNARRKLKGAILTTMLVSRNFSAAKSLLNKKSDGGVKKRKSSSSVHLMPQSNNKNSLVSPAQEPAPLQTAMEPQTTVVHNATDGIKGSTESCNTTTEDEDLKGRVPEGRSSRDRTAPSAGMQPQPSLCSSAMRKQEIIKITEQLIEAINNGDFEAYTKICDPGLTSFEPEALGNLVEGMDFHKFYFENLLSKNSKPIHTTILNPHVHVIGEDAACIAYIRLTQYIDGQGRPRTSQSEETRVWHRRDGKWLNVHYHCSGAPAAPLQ
UniProt Q15131: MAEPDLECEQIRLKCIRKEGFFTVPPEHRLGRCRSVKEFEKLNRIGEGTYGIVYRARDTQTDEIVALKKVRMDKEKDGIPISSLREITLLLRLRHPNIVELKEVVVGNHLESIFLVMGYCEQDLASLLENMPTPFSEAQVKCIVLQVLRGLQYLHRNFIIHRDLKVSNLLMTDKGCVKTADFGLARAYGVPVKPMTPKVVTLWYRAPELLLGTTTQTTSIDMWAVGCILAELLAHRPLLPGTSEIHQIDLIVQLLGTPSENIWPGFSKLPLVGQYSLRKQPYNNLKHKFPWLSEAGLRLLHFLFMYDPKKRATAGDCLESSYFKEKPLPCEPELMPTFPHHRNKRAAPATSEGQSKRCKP
UniProt Q00526: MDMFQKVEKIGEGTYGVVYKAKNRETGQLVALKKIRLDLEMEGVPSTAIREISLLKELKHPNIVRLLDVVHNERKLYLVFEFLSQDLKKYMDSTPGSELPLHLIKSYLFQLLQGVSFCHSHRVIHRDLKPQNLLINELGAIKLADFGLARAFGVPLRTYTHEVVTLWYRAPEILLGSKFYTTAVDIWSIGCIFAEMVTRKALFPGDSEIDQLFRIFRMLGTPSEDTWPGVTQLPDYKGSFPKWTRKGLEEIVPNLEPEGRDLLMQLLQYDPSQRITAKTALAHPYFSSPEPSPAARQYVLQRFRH
UniProt Q00534, whole entry: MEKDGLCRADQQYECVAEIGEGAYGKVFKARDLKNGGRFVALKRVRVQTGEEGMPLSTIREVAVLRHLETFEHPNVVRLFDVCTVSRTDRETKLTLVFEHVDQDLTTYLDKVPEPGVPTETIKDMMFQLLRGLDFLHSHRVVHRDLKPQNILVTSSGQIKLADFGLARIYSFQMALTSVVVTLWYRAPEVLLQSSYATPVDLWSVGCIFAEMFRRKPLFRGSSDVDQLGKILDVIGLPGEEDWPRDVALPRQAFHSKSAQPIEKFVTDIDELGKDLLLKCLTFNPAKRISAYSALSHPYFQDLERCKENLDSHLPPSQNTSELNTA
UniProt O96017, whole entry: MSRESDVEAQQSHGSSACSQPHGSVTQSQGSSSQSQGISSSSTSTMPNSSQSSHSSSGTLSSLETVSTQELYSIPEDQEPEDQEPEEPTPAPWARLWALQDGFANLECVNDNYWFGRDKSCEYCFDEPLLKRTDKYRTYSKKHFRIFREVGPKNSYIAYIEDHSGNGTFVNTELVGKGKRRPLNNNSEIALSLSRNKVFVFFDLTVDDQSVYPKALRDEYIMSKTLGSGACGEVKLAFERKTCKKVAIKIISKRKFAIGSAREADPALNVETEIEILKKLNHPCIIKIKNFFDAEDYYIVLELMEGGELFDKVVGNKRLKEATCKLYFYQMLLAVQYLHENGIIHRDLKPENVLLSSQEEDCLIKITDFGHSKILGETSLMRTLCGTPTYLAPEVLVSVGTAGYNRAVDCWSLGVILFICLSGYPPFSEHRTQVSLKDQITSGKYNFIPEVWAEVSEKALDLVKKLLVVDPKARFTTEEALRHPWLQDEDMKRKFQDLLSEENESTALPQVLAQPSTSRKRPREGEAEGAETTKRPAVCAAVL
UniProt P07333, whole entry: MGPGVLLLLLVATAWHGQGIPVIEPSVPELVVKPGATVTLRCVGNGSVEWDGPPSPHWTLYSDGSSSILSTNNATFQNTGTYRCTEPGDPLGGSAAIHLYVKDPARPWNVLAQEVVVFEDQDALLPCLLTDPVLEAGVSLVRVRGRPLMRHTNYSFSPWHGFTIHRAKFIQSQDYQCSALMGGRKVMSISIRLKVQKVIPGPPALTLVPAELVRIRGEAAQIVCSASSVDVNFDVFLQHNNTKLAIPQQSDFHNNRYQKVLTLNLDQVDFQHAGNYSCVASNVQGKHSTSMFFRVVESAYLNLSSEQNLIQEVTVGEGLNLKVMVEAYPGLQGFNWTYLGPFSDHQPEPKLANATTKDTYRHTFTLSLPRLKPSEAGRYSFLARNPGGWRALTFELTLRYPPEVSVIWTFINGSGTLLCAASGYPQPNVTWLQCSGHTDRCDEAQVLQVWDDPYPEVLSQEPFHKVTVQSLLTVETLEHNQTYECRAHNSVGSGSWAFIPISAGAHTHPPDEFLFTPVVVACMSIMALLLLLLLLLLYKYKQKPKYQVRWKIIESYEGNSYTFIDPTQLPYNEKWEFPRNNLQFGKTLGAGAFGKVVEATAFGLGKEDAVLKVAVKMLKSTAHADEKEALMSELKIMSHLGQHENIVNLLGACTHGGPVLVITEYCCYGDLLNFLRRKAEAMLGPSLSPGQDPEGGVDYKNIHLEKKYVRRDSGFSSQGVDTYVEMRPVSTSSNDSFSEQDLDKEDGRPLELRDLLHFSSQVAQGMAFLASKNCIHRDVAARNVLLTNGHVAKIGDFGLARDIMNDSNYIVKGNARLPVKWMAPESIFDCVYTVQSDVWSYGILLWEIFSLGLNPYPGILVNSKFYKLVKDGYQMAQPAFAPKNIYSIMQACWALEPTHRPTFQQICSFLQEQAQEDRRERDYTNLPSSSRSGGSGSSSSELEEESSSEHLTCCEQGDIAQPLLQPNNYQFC
UniProt P41240: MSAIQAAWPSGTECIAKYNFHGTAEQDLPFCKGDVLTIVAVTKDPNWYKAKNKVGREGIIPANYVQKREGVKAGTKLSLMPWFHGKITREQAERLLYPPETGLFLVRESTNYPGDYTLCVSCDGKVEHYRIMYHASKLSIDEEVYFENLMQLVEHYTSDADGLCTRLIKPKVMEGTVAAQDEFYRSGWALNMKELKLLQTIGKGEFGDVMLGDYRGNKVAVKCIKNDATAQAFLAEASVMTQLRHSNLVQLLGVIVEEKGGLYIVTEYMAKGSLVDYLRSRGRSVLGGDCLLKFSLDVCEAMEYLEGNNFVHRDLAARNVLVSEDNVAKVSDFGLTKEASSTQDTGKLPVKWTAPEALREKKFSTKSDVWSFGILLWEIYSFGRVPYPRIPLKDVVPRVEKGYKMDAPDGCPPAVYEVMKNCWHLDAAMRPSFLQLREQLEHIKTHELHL
UniProt P48730: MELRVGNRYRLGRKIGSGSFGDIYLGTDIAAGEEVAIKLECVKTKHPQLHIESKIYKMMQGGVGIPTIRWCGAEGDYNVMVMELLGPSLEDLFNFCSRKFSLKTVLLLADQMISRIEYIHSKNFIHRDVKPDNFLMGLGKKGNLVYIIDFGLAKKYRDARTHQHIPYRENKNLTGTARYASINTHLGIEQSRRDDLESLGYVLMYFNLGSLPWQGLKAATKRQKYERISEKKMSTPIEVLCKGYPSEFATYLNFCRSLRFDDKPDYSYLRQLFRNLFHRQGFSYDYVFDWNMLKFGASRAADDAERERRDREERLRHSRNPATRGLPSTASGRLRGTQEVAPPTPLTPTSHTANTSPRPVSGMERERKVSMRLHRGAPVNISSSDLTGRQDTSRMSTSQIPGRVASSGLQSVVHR
UniProt Q08345: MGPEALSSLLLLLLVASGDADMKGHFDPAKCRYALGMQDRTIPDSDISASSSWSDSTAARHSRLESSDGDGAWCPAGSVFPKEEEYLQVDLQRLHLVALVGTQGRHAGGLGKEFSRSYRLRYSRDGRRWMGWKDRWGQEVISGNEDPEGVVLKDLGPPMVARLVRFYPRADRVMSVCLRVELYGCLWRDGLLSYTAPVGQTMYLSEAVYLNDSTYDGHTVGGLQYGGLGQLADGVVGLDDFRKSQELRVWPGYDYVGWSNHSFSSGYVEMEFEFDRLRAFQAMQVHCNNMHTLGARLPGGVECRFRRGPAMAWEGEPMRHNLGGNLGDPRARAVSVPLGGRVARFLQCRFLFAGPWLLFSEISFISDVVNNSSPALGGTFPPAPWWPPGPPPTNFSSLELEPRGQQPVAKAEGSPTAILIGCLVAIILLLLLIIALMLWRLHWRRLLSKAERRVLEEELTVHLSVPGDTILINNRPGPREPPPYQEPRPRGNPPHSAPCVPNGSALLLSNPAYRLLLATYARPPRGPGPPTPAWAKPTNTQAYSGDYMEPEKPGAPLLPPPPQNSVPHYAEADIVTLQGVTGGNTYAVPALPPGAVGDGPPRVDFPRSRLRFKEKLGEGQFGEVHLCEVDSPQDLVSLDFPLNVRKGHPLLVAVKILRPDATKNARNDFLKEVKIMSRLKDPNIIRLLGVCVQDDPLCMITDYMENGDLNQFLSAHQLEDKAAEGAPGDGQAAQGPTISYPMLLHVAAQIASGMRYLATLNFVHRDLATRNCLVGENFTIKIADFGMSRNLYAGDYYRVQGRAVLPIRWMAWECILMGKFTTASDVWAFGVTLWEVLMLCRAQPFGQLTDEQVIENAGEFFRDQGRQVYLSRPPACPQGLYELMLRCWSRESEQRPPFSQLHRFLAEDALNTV
UniProt Q9Y463, whole entry, looked up: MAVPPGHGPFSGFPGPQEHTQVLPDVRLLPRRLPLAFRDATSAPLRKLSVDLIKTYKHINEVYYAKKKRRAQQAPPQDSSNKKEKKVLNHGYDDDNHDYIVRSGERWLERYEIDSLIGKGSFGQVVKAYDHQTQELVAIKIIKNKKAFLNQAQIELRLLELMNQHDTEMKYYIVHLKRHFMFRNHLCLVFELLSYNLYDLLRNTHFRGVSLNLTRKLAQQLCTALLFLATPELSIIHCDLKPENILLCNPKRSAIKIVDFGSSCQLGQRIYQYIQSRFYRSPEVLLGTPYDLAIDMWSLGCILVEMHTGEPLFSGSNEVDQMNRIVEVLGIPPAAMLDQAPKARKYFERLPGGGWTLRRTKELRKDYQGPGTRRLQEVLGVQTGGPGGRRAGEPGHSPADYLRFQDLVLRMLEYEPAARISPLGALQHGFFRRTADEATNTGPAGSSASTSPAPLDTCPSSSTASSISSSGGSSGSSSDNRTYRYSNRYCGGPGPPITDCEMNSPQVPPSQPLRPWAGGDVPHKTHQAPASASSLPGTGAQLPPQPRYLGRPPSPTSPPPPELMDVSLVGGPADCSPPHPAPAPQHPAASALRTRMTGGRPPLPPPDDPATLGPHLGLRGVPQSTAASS
UniProt Q92630: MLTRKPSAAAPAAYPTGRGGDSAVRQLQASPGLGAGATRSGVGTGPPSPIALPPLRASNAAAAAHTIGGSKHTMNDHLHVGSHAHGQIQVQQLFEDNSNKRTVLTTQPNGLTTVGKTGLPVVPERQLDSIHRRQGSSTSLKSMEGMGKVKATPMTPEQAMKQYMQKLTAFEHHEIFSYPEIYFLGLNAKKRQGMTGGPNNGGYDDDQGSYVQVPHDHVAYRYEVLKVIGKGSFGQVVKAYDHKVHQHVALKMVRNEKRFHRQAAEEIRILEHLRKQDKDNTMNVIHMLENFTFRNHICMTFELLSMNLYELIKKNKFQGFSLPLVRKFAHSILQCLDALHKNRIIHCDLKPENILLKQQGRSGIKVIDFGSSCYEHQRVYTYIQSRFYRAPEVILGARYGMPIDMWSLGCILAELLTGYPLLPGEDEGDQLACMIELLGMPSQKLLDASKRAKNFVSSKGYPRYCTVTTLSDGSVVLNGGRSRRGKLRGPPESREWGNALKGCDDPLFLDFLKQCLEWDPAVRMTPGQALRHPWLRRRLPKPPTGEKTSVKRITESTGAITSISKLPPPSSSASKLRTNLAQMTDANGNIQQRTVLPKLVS

| SMILES | number of time points [1] | number of time points [2] | number of time points [3] | number of time points [4] | number of time points [5] | number of time points [6] | number of time points [7] | number of time points [8] | number of time points [9] | number of time points [10] | number of time points [11] | number of time points [12] | number of time points [13] | number of time points [14] | number of time points [15] | number of time points [16] | number of time points [17] | number of time points [18] | number of time points [19] | number of time points [20] |
| --- | --- | --- | --- | --- | --- | --- | --- | --- | --- | --- | --- | --- | --- | --- | --- | --- | --- | --- | --- | --- |
| N#CC(=Cc1ccc(O)c(O)c1)C(=O)NCc1ccccc1 (mixture of isomers) (10 µM) | 0 | 0 | 0 | 0 | 0 | 0 | 0 | 0 | 0 | 0 | 0 | 0 | 0 | 0 | 0 | – | – | – | – | – |
| O=c1c(O)c(-c2ccc(O)c(O)c2)oc2cc(O)cc(O)c12 [Quercetin (dihydrate)] (10 µM) | 0 | 0 | 0 | 0 | 0 | 0 | 0 | 0 | 0 | 0 | 0 | 0 | 0 | 0 | 1 | – | – | – | – | – |
| COc1cc(C=C(C#N)C(N)=O)cc(CSc2nc3ccccc3s2)c1O (10 µM) | 0 | 0 | 0 | 0 | 0 | 0 | 0 | 0 | 0 | 0 | 0 | 0 | 1 | 0 | 0 | – | – | – | – | – |
| O=c1cc(N2CCOCC2)oc2c(-c3ccccc3)cccc12 (10 µM) | 0 | 0 | 0 | 0 | 0 | 0 | 0 | 0 | 0 | 0 | 0 | 0 | 0 | 0 | 0 | – | – | – | – | – |
| CCN(CC)CCCCNc1ncc2cc(-c3cc(OC)cc(OC)c3)c(NC(=O)NC(C)(C)C)nc2n1 (10 µM) | 0 | 0 | 0 | 0 | 0 | 0 | 0 | 0 | 0 | 0 | 0 | 0 | 0 | 0 | 0 | – | – | – | – | – |
| CC(C)(C#N)c1ccc(N2C(=O)OCc3cnc4ccc(-c5cnc6ccccc6c5)cc4c32)cc1 (2.5 µM) | 0 | 0 | 0 | 0 | 0 | 0 | 0 | 0 | 0 | 0 | 0 | 0 | 0 | 0 | 0 | 0 | 3 | 0 | 0 | 0 |
| Cc1c[nH]c2nccc(Oc3c(F)cc(Nc4cc(Cl)nc(N)n4)cc3F)c12 (10 µM) | 0 | 1 | 0 | 0 | 0 | 0 | 0 | 0 | 0 | 0 | 0 | 0 | 0 | 0 | 1 | – | – | – | – | – |
| Nc1ncnc2c1c(-c1ccc(Oc3ccccc3)cc1)cn2C1CCCC1 (2.5 µM) | 0 | 0 | 0 | 0 | 0 | 0 | 0 | 0 | 0 | 0 | 0 | 0 | 0 | 0 | 2 | – | – | – | – | – |
| CC(C)CC(=O)Nc1n[nH]c2c1CN(C(=O)C1CCN(C)CC1)C2(C)C (2.5 µM) | 0 | 0 | 0 | 0 | 0 | 1 | 0 | 0 | 0 | 0 | 0 | 0 | 1 | 0 | 0 | – | – | – | – | – |
| COc1cc(OC)c(F)c(COc2cnc(Nc3cnn(CCO)c3)nc2)c1F (2.5 µM) | 0 | 2 | 0 | 0 | 0 | 0 | 0 | 2 | 0 | 0 | 0 | 0 | 0 | 0 | 1 | 0 | 0 | 0 | 1 | 2 |
| CCN1CCN(c2ccc(Nc3cc(N(C)C(=O)Nc4c(Cl)c(OC)cc(OC)c4Cl)ncn3)cc2)CC1 [Infigratinib] (10 µM) | 0 | 0 | 0 | 0 | 0 | 0 | 0 | 0 | 0 | 0 | 0 | 0 | 0 | 0 | 0 | – | – | – | – | – |
| Cc1cc(N2CCOCC2)cc2[nH]c(-c3c(NC[C@@H](O)c4cccc(Cl)c4)cc[nH]c3=O)nc12 (10 µM) | 0 | 0 | 0 | 0 | 0 | 0 | 0 | 1 | 0 | 0 | 0 | 0 | 3 | 0 | 4 | – | – | – | – | – |
| CCN(CCO)CCCOc1ccc2c(Nc3cc(CC(=O)Nc4cccc(F)c4)[nH]n3)ncnc2c1 [Barasertib-HQPA] (10 µM) | 0 | 0 | 0 | 0 | 0 | 0 | 0 | 0 | 0 | 0 | 0 | 0 | 0 | 0 | 0 | – | – | – | – | – |
| CCOc1ccn(-c2ccc(F)cc2)c(=O)c1C(=O)Nc1ccc(Oc2ccnc(N)c2Cl)c(F)c1 (10 µM) | 0 | 0 | 0 | 0 | 0 | 0 | 0 | 1 | 1 | 0 | 0 | 0 | 1 | 1 | 4 | – | – | – | – | – |
| N#Cc1ccc2[nH]c(O)c(-c3ccc(CN4CCOCC4)cn3)c2c1 (10 µM) | 0 | 0 | 0 | 0 | 0 | 0 | 0 | 0 | 0 | 0 | 0 | 0 | 0 | 0 | 0 | – | – | – | – | – |
| Oc1ccc(-c2nc(-c3ccc(F)cc3)c(-c3ccncc3)[nH]2)cc1 (2.5 µM) | 0 | 0 | 0 | 0 | 0 | 0 | 0 | 0 | 0 | 0 | 0 | 0 | 0 | 0 | 0 | – | – | – | – | – |
| Cn1c(=O)c(Oc2ccc(F)cc2F)cc2cnc(NC3CCOCC3)nc21 [R1487 (Hydrochloride)] (10 µM) | 0 | 0 | 0 | 0 | 0 | 0 | 0 | 0 | 0 | 0 | 0 | 0 | 0 | 0 | 0 | – | – | – | – | – |
| O=c1oc2c(O)c(O)cc3c(=O)oc4c(O)c(O)cc1c4c23 [Ellagic acid] (10 µM) | 0 | 0 | 0 | 0 | 0 | 0 | 0 | 0 | 0 | 0 | 0 | 0 | 0 | 0 | 0 | – | – | – | – | – |
| CN1CCC(Nc2ncc3ncnc(Nc4ccc(F)c(Cl)c4)c3n2)CC1 [Falnidamol] (10 µM) | 0 | 0 | 0 | 0 | 0 | 0 | 0 | 0 | 0 | 0 | 0 | 0 | 0 | 0 | 0 | – | – | – | – | – |
| N#C/C(=C\c1ccc(O)c(O)c1)C(=O)NCCCc1ccccc1 (10 µM) | 0 | 0 | 0 | 0 | 0 | 0 | 0 | 0 | 0 | 0 | 0 | 0 | 0 | 0 | 0 | – | – | – | – | – |
| CCN(CC)CCCCNc1ncc2cc(-c3c(Cl)cccc3Cl)c(NC(=O)NC(C)(C)C)nc2n1 (2.5 µM) | 0 | 3 | 0 | 0 | 0 | 1 | 0 | 2 | 0 | 0 | 3 | 2 | 3 | 0 | 0 | – | – | – | – | – |
| COc1cc2c(Nc3ccc(Br)cc3F)ncnc2cc1OCCn1ccnn1 (10 µM) | 0 | 0 | 0 | 0 | 0 | 0 | 0 | 0 | 0 | 0 | 0 | 0 | 0 | 0 | 0 | – | – | – | – | – |
| O=C1Cc2c([nH]c3ccc(Br)cc23)-c2ncccc2N1 [1-Azakenpaullone] (10 µM) | 0 | 0 | 0 | 0 | 0 | 0 | 0 | 0 | 0 | 0 | 0 | 0 | 0 | 0 | 0 | – | – | – | – | – |
| COc1cc(C)c(Sc2cnc(NC(=O)c3ccc(CNC(C)C(C)(C)C)cc3)s2)cc1C(=O)N1CCN(C(C)=O)CC1 (stereo not given) (2.5 µM) | 0 | 0 | 0 | 0 | 0 | 0 | 0 | 0 | 0 | 0 | 0 | 0 | 0 | 0 | 0 | – | – | – | – | – |
| CNc1nc(-c2ccc3c(N)n[nH]c3c2)cc(N2C[C@@H](C(=O)NC3CCCCC3)CC[C@H]2C)n1 (10 µM) | 0 | 0 | 0 | 0 | 0 | 0 | 0 | 3 | 2 | 0 | 0 | 0 | 0 | 0 | 0 | – | – | – | – | – |
| Cc1ccc(NC(=O)Nc2nnc(Sc3ncnc4cc(OCCCN5CCOCC5)ccc34)s2)cc1 (10 µM) | 0 | 0 | 0 | 0 | 0 | 0 | 0 | 0 | 0 | 0 | 0 | 0 | 0 | 0 | 0 | – | – | – | – | – |
| O=c1c(-c2ccc(O)cc2)coc2cc(O)cc(O)c12 [Genistein] (10 µM) | 0 | 0 | 0 | 0 | 0 | 0 | 0 | 0 | 0 | 0 | 0 | 0 | 0 | 0 | 0 | – | – | – | – | – |
| O=C1NCCc2[nH]c(-c3ccnc(-c4cnc5ccccc5c4)c3)cc21 (10 µM) | 0 | 0 | 0 | 0 | 0 | 0 | 0 | 0 | 0 | 0 | 0 | 0 | 0 | 0 | 0 | – | – | – | – | – |
| CCn1c(=O)c2cc(C(N)=O)c(N)nc2n(C2CC2)c1=O (10 µM) | 0 | 0 | 0 | 0 | 0 | 0 | 0 | 0 | 0 | 0 | 0 | 0 | 0 | 0 | 0 | 0 | 0 | 0 | 0 | 0 |
| COc1cc(OC)cc(-c2cc3cnc(N)nc3nc2NC(=O)NC(C)(C)C)c1 (10 µM) | 0 | 0 | 0 | 0 | 0 | 0 | 0 | 0 | 0 | 0 | 0 | 0 | 0 | 0 | 0 | – | – | – | – | – |

One compound at a time, from the list above. Values in the order: number of time points [1]	number of time points [2]	number of time points [3]	number of time points [4]	number of time points [5]	number of time points [6]	number of time points [7]	number of time points [8]	number of time points [9]	number of time points [10]	number of time points [11]	number of time points [12]	number of time points [13]	number of time points [14]	number of time points [15]	number of time points [16]	number of time points [17]	number of time points [18]	number of time points [19]	number of time points [20]
CC(C)CC(=O)Nc1n[nH]c2c1CN(C(=O)C1CCN(C)CC1)C2(C)C (2.5 µM) is entered as 0	0	0	0	0	1	0	0	0	0	0	0	1	0	0	–	–	–	–	–
COc1cc(OC)cc(-c2cc3cnc(N)nc3nc2NC(=O)NC(C)(C)C)c1 (10 µM) is entered as 0	0	0	0	0	0	0	0	0	0	0	0	0	0	0	–	–	–	–	–
